Measurements as given in the supplement of paper PMC6411743.
± gives the standard deviation of the averaged measurements. This is one part of the list.

Chains of the proteins cited; added tags and fusions are not shown. Lines headed by an entry give the natural chain unless they say otherwise; changes in a name come on top.
UniProt O75131: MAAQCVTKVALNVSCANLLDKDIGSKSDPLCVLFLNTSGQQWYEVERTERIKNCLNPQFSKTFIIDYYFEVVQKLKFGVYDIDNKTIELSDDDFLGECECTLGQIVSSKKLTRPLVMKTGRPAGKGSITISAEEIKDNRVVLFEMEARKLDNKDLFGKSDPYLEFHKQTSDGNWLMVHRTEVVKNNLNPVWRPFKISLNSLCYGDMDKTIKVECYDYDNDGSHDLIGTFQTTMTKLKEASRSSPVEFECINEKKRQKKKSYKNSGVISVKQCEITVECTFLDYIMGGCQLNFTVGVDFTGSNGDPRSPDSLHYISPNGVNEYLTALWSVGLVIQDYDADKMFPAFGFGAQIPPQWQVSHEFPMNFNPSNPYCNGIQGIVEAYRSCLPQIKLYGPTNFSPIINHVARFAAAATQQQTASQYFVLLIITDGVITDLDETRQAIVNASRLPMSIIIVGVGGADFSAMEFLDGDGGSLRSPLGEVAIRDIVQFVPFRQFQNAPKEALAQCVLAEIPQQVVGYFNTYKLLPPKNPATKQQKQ
UniProt P05423: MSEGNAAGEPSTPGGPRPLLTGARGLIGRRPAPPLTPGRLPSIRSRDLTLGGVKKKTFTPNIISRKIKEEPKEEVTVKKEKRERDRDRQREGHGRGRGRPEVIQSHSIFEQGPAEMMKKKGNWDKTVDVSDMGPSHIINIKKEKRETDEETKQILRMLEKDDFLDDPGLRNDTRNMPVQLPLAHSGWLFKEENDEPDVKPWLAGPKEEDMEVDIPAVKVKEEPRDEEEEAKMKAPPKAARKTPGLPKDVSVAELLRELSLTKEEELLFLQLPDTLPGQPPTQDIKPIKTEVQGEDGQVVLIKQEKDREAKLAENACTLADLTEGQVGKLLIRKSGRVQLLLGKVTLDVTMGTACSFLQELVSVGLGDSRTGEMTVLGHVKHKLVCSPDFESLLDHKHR
UniProt O75884: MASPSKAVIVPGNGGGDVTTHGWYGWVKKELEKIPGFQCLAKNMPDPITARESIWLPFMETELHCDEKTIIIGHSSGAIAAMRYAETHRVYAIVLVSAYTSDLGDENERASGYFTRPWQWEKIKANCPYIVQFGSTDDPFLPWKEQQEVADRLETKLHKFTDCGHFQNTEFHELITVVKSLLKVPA
UniProt O75822, whole entry: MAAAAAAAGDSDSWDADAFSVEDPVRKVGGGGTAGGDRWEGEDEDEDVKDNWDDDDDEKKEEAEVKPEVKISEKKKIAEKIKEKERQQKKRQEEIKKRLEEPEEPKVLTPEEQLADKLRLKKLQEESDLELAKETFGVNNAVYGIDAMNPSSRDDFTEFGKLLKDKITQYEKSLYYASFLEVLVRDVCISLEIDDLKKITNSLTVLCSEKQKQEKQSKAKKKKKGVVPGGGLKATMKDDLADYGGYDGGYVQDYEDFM
UniProt O95747, whole entry, looked up: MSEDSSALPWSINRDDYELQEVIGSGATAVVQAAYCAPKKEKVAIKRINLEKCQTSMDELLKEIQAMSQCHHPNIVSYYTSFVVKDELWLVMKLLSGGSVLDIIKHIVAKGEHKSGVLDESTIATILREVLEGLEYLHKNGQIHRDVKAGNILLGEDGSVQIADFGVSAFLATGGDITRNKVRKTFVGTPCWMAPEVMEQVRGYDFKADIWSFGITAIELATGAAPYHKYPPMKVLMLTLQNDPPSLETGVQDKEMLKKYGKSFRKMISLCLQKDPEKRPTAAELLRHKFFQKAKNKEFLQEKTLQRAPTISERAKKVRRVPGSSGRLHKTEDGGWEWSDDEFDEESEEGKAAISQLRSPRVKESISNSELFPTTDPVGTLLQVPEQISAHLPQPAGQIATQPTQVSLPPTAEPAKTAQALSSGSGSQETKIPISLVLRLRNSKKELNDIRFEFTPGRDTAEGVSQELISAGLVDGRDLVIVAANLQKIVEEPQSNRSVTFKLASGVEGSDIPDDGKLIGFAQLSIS
UniProt O75431: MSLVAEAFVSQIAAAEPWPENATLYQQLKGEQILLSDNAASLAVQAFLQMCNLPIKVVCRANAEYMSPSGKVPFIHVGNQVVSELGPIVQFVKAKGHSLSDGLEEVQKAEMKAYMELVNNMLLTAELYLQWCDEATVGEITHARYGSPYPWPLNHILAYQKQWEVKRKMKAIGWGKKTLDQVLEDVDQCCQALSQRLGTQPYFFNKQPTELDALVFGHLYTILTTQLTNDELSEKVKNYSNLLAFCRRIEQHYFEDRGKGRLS
UniProt O75369, whole entry: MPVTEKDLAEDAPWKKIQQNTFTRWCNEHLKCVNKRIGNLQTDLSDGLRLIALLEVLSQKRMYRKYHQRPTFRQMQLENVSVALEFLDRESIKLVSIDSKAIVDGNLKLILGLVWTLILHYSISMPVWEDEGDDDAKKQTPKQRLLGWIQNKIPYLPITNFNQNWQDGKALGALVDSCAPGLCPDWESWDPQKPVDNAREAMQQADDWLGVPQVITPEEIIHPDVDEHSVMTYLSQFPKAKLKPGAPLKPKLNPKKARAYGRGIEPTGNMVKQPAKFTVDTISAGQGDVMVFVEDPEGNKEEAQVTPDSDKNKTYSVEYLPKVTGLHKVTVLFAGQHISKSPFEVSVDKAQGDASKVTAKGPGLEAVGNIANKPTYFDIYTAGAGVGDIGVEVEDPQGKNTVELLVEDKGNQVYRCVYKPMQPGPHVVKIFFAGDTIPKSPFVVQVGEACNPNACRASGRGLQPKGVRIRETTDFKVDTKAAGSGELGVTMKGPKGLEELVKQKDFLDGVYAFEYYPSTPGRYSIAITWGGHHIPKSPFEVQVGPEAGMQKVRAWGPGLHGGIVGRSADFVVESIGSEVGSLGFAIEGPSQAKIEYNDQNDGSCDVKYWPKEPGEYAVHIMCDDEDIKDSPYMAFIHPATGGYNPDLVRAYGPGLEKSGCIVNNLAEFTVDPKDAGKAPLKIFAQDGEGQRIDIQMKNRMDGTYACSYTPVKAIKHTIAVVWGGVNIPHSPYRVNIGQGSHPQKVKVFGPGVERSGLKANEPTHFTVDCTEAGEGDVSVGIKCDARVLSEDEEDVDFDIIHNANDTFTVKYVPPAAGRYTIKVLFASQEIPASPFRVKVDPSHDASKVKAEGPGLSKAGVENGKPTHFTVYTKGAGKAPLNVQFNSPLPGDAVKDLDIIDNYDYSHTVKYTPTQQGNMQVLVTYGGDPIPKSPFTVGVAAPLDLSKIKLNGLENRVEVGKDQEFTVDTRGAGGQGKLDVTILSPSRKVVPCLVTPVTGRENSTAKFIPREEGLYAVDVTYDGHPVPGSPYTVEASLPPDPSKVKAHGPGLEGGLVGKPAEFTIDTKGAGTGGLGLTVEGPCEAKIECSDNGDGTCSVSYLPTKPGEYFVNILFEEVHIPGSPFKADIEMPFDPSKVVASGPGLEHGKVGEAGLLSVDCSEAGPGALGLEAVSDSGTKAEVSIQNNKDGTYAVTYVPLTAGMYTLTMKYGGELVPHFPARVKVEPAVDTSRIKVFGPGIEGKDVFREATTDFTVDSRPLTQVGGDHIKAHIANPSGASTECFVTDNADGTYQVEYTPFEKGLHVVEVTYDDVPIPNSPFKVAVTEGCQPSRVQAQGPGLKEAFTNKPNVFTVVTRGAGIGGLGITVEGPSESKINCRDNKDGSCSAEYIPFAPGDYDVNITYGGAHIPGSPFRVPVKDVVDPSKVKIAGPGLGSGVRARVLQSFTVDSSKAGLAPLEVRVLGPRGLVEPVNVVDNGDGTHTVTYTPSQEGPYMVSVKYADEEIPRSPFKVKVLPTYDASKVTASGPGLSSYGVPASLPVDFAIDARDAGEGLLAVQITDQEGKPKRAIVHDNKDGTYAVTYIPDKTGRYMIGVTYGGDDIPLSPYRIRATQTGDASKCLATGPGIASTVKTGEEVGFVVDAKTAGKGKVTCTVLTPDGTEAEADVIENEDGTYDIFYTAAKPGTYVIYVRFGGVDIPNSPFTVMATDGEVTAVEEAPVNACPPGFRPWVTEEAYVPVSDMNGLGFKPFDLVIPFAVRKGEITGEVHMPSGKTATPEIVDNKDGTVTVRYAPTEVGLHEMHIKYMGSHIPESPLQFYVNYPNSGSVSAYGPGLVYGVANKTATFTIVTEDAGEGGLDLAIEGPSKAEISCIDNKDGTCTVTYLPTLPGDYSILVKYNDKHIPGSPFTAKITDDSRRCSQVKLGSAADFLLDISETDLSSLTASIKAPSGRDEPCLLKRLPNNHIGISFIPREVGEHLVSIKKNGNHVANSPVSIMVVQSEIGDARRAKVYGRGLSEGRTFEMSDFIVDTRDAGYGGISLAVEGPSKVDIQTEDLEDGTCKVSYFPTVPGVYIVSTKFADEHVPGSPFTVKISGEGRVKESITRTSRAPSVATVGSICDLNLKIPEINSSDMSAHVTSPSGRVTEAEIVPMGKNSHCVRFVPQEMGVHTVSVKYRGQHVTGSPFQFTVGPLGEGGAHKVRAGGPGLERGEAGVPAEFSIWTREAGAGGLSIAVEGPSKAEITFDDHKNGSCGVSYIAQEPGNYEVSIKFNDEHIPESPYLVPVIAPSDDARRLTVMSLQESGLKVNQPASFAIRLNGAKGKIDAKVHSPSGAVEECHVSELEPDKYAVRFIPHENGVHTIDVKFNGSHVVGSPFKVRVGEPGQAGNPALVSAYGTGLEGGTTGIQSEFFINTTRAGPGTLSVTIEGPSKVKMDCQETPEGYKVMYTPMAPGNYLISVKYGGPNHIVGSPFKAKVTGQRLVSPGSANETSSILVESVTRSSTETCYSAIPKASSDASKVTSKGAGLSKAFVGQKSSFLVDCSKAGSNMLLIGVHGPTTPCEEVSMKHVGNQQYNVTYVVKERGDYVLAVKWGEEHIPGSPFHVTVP
UniProt O75143: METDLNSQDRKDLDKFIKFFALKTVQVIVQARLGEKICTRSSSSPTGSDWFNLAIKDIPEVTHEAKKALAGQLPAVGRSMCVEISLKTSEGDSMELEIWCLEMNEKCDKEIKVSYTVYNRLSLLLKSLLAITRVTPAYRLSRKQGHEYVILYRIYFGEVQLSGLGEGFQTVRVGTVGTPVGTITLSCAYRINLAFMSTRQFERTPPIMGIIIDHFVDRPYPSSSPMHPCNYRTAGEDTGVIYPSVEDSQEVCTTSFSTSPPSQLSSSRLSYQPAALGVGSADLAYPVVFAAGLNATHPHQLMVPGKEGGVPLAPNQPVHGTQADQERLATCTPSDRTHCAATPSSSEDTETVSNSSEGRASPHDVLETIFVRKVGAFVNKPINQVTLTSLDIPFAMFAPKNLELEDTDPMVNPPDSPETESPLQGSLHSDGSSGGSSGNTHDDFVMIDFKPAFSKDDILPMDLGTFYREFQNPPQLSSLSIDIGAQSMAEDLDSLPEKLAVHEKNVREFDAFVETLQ
UniProt O75054: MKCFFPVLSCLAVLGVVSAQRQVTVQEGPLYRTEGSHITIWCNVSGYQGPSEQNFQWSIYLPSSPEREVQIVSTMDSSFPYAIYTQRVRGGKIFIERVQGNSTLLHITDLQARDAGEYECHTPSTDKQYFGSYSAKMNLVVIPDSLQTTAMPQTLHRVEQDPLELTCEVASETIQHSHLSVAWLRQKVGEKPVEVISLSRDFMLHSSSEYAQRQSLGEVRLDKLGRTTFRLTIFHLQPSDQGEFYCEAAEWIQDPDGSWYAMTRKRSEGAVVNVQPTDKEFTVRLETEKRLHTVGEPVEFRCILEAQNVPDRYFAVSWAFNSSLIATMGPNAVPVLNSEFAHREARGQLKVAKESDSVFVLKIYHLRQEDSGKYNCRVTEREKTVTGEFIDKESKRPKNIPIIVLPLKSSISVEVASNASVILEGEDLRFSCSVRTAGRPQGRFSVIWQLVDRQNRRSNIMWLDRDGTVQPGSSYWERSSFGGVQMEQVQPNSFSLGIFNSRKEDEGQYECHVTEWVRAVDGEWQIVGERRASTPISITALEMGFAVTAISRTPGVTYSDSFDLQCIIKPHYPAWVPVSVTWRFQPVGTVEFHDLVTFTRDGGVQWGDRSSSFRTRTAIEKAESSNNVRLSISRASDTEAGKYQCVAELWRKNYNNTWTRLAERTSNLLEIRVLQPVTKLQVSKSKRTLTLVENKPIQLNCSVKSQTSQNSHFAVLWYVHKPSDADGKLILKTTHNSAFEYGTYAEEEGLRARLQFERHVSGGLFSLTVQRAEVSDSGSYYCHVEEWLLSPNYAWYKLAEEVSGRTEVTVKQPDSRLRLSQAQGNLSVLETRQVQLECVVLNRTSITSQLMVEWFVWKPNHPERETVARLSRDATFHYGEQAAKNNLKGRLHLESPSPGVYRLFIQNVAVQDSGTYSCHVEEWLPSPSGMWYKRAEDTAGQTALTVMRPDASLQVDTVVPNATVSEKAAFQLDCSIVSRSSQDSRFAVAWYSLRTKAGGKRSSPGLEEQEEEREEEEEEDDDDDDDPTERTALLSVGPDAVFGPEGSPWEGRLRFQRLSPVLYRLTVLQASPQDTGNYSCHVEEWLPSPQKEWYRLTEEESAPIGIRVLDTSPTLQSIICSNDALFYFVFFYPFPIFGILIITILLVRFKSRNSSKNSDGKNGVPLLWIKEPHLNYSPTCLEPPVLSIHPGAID
UniProt O96033: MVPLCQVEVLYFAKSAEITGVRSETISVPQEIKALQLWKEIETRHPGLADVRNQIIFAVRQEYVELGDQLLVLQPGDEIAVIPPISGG

Compound: Nc1nc2c(ncn2[C@@H]2O[C@H](COP(=O)(O)OP(=O)(O)OP(=O)(O)O)[C@@H](O)[C@H]2O)c(=O)[nH]1 [guanosine triphosphate]
Assay: NP40-soluble protein abundance relative to vehicle (solubility fold change) (ratio); higher = more soluble protein in presence of GTP
Procedure, shortened: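 Jurkat crude lysate prepared with a Dounce homogeniser was treated at eight concentrations spanning 0.1 to 10 mM, 10 min at room temperature then 3 min at 37 °C. Solubilisation with 0.8% NP40 and benzonase and ultracentrifugation preceded TMT labelling of the supernatant for LC-MS/MS. Fold change against the detergent-processed vehicle was determined per replicate from vsn-normalised intensities, across three independent experiments.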

Target	NP40-soluble protein abundance (concentration: 0.1mM)	NP40-soluble protein abundance (concentration: 0.5mM)	NP40-soluble protein abundance (concentration: 1mM)	NP40-soluble protein abundance (concentration: 2mM)	NP40-soluble protein abundance (concentration: 4mM)	NP40-soluble protein abundance (concentration: 6mM)	NP40-soluble protein abundance (concentration: 8mM)	NP40-soluble protein abundance (concentration: 10mM)
CPNE3 (UniProt O75131)	0.971 ± 0.015	0.958 ± 0.051	0.87 ± 0.039	0.872 ± 0.033	0.871 ± 0.017	0.852 ± 0.022	0.817 ± 0.063	0.806 ± 0.073
POLR3D (UniProt P05423)	1.03 ± 0.037	1.09 ± 0.037	1.12 ± 0.07	1.17 ± 0.066	1.19 ± 0.1	1.16 ± 0.086	1.21 ± 0.14	1.19 ± 0.14
UniProt O75486 and related entries	1.06 ± 0.097	1.03 ± 0.15	1.08 ± 0.077	1.14 ± 0.038	1.19 ± 0.12	1.14 ± 0.15	1.3 ± 0.21	1.24 ± 0.26
UniProt O95983 and related entries	0.982 ± 0.11	0.959 ± 0.076	1.19 ± 0.2	1.23 ± 0.18	1.23 ± 0.17	1.22 ± 0.16	1.28 ± 0.16	1.33 ± 0.24
RBBP9 (UniProt O75884)	1.02 ± 0.072	0.941 ± 0.061	0.951 ± 0.054	0.89 ± 0.083	0.855 ± 0.068	0.872 ± 0.12	0.87 ± 0.05	0.84 ± 0.13
UniProt O94826	0.939 ± 0.039	0.949 ± 0.072	0.934 ± 0.061	0.911 ± 0.085	0.89 ± 0.061	0.904 ± 0.084	0.893 ± 0.059	0.917 ± 0.073
UniProt O95475	0.977 ± 0.052	1.02 ± 0.083	1.05 ± 0.023	1.01 ± 0.043	1.05 ± 0.065	1.03 ± 0.061	1.05 ± 0.054	1.11 ± 0.093
ZC3H11A (UniProt O75152)	0.916 ± 0.066	0.876 ± 0.081	0.871 ± 0.095	0.868 ± 0.1	0.972 ± 0.076	1.02 ± 0.075	1.09 ± 0.051	1.08 ± 0.069
UniProt O95544 and related entries	0.98 ± 0.048	0.986 ± 0.054	0.92 ± 0.054	0.855 ± 0.1	0.819 ± 0.14	0.936 ± 0.06	0.863 ± 0.04	0.811 ± 0.089
WDR1 (UniProt O75083)	0.976 ± 0.011	0.996 ± 0.045	0.895 ± 0.01	0.892 ± 0.031	0.881 ± 0.017	0.9 ± 0.02	0.869 ± 0.046	0.834 ± 0.059
UniProt O95786 and related entries	1.1 ± 0.036	1.07 ± 0.049	0.976 ± 0.066	1.04 ± 0.086	0.93 ± 0.075	0.939 ± 0.042	0.903 ± 0.062	0.891 ± 0.053
PDCD6 (UniProt O75340)	0.951 ± 0.018	0.987 ± 0.058	0.93 ± 0.053	0.967 ± 0.087	0.898 ± 0.043	0.932 ± 0.06	0.884 ± 0.077	0.927 ± 0.089
UniProt O94762 and related entries	1.08 ± 0.059	1.09 ± 0.043	1.1 ± 0.093	1.14 ± 0.11	1.14 ± 0.12	1.26 ± 0.15	1.2 ± 0.13	1.2 ± 0.06
RSL1D1 (UniProt O76021)	1.02 ± 0.063	1.06 ± 0.036	1.15 ± 0.06	1.2 ± 0.04	1.26 ± 0.056	1.3 ± 0.034	1.28 ± 0.064	1.49 ± 0.14
UniProt O95425 and related entries	0.879 ± 0.088	0.849 ± 0.12	0.96 ± 0.1	0.875 ± 0.15	0.885 ± 0.13	0.886 ± 0.14	0.885 ± 0.094	0.878 ± 0.15
DNAJC8 (UniProt O75937)	0.838 ± 0.14	0.801 ± 0.056	1.1 ± 0.17	1.09 ± 0.056	1.08 ± 0.14	1.14 ± 0.12	1.05 ± 0.21	1.3 ± 0.25
UniProt O94804	0.965 ± 0.05	0.959 ± 0.051	0.952 ± 0.057	0.922 ± 0.079	0.899 ± 0.088	0.918 ± 0.07	0.93 ± 0.037	0.904 ± 0.057
SEMA7A (UniProt O75326)	0.993 ± 0.023	0.955 ± 0.072	0.996 ± 0.076	1 ± 0.14	0.978 ± 0.1	1.03 ± 0.091	1.03 ± 0.057	1 ± 0.072
UniProt O75822 and related entries	0.856 ± 0.038	0.825 ± 0.074	0.908 ± 0.09	0.954 ± 0.098	1.07 ± 0.17	1.32 ± 0.22	1.4 ± 0.3	1.77 ± 0.39
UniProt O95747	0.948 ± 0.11	0.956 ± 0.1	0.909 ± 0.095	0.895 ± 0.072	0.879 ± 0.082	0.877 ± 0.077	0.872 ± 0.092	0.867 ± 0.1
ZBED1 (UniProt O96006)	1.02 ± 0.047	1.03 ± 0.015	1.01 ± 0.04	0.966 ± 0.057	0.962 ± 0.043	0.915 ± 0.052	0.929 ± 0.077	0.901 ± 0.055
GRAP2 (UniProt O75791)	1.02 ± 0.014	1.016 ± 0.0083	0.926 ± 0.019	0.907 ± 0.032	0.896 ± 0.041	0.875 ± 0.042	0.879 ± 0.062	0.844 ± 0.084
UniProt O75431 and related entries	1.07 ± 0.13	1.04 ± 0.057	1.03 ± 0.049	1.07 ± 0.07	1.09 ± 0.056	1.03 ± 0.056	0.989 ± 0.041	1.04 ± 0.045
UniProt O75369-8|O75369-9|O75369 and related entries	0.958 ± 0.071	0.978 ± 0.064	0.939 ± 0.072	0.902 ± 0.066	0.896 ± 0.063	0.908 ± 0.053	0.925 ± 0.076	0.895 ± 0.071
UniProt O75964	0.835 ± 0.053	0.821 ± 0.058	0.936 ± 0.052	0.911 ± 0.032	0.899 ± 0.025	0.917 ± 0.024	0.813 ± 0.099	0.868 ± 0.047
UniProt O75143 and related entries	0.993 ± 0.038	0.996 ± 0.042	1.01 ± 0.065	1.02 ± 0.081	0.967 ± 0.024	0.959 ± 0.088	0.937 ± 0.058	0.947 ± 0.041
PALM (UniProt O75781)	0.97 ± 0.023	0.85404 ± 0.00084	0.949 ± 0.036	0.895 ± 0.02	0.823 ± 0.032	0.845 ± 0.029	0.925 ± 0.069	0.992 ± 0.1
SNAP29 (UniProt O95721)	1 ± 0.042	0.962 ± 0.07	1.02 ± 0.012	0.959 ± 0.059	0.933 ± 0.078	0.979 ± 0.12	1.08 ± 0.063	1.07 ± 0.078
UniProt O75054 and related entries	1.11 ± 0.081	1.09 ± 0.07	1.07 ± 0.083	1.02 ± 0.1	1.02 ± 0.083	1.02 ± 0.062	1.03 ± 0.072	1.02 ± 0.075
O96007 and related entries (UniProt O96033+O96007)	0.856 ± 0.057	0.867 ± 0.039	0.833 ± 0.066	0.882 ± 0.056	0.822 ± 0.041	0.855 ± 0.051	0.832 ± 0.1	0.833 ± 0.051

Pulled one by one from the entries so far, 2 records:
Target	NP40-soluble protein abundance (concentration: 0.1mM)	NP40-soluble protein abundance (concentration: 0.5mM)	NP40-soluble protein abundance (concentration: 1mM)	NP40-soluble protein abundance (concentration: 2mM)	NP40-soluble protein abundance (concentration: 4mM)	NP40-soluble protein abundance (concentration: 6mM)	NP40-soluble protein abundance (concentration: 8mM)	NP40-soluble protein abundance (concentration: 10mM)
UniProt O95747	0.948 ± 0.11	0.956 ± 0.1	0.909 ± 0.095	0.895 ± 0.072	0.879 ± 0.082	0.877 ± 0.077	0.872 ± 0.092	0.867 ± 0.1
UniProt O94826	0.939 ± 0.039	0.949 ± 0.072	0.934 ± 0.061	0.911 ± 0.085	0.89 ± 0.061	0.904 ± 0.084	0.893 ± 0.059	0.917 ± 0.073
